Experimental data taken from patent WO2019006280A1 (dated 2019).
These are yes or no findings as the source states them, for the method shown. Some entries that bind do so weakly or less than the wild type.

By UniProt entry, the sequences of proteins in these tests, tags left out. Residues count along the entry.
UniProt P20138, residues 18-259: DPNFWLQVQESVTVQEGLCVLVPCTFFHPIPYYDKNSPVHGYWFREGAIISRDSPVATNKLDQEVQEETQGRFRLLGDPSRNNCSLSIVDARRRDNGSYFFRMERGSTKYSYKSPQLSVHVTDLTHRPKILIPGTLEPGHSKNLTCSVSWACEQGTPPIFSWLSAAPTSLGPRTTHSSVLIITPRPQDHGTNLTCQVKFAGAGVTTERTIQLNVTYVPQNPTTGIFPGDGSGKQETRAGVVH

Key:
[1] = target: recombinant human CD33 (human) (UniProt P20138); test: ELISA
[2] = target: recombinant human CD33 (human) (UniProt P20138); test: ELISA, purified VH domain on coated recombinant human CD33, HRP anti-Flag

B1: ml033-2 VH domain antibody (VHH)
VHH: EVQLVESGGGLVQPGGSLRLSCAASGFTFSSYGMSWVRQAPRKGLEWIGEINHSGSTNYNPSLKSRVTISRDNSKNTLYLQMNSLRAEDTATYYCARPLNYYYYYMDVWGKGTTVTVSS
notes: also called single domain antibody ml 033-2; m1033-2; not shown: His and Flag tags
With B1 as the binder, how does the binding [1] read?
The binding was “binds”.

What about the binding [2] of the same binder?
The binding was “binds”.
